No constants are given. Whether binding was seen depends on the method and setting. Some entries that bind do so weakly or less than the wild type.
What was measured:
[1] = target: hGREM1 (Peprotech) (human) (UniProt O60565); assay: blocking ELISA: coated BMP2 0.25ug/ml, antibody pre-incubated with biotin Gremlin (Peprotech) 0.1ug/ml, neutravidin-HRP; blocked ligand BMP2
[2] = target: hGREM1 (Peprotech) (human) (UniProt O60565); assay: blocking ELISA: coated BMP4 0.25ug/ml, antibody pre-incubated with biotin Gremlin (Peprotech) 0.1ug/ml, neutravidin-HRP; blocked ligand BMP4

Sequences of proteins named here, by UniProt entry; tags and fusion partners are left off. A change or cut given only in a name is not applied to a line headed by its entry.
UniProt O60565: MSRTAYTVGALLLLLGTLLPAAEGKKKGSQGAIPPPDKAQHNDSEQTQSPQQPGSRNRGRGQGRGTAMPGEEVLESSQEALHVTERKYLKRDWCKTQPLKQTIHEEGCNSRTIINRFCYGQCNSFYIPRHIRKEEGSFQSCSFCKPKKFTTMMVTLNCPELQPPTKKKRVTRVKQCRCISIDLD

B1: 69H5 (antibody, V domains shown)
VH: EVQLQQSGAELVRPGASVKLSCTASGFNIKDDYMHWVKRRPEQGLEWIGWIDPENGDTEYASKFQGKATITADTSSNTAYLQLSSLTSEDTAVYYCTTWATVPDFDYWGQGTTLTVSS
VL: DIVMTQSPSSLAMSVGQKVTMSCKSSQSLLNRSNQKNYLAWYQQKPGQSPKLLVHFTSTRESGVPDRFIGSGSGTDFTLTISNLQAEDLADYFCQQHYSTPFTFGSGTKLEIK
For B1, the binding [1] was “binds” and the binding [2] was “binds”.
